From PMC2905391

Chains of the proteins cited; added tags and fusions are not shown. Lines headed by an entry give the natural chain unless they say otherwise; changes in a name come on top.
UniProt P13020: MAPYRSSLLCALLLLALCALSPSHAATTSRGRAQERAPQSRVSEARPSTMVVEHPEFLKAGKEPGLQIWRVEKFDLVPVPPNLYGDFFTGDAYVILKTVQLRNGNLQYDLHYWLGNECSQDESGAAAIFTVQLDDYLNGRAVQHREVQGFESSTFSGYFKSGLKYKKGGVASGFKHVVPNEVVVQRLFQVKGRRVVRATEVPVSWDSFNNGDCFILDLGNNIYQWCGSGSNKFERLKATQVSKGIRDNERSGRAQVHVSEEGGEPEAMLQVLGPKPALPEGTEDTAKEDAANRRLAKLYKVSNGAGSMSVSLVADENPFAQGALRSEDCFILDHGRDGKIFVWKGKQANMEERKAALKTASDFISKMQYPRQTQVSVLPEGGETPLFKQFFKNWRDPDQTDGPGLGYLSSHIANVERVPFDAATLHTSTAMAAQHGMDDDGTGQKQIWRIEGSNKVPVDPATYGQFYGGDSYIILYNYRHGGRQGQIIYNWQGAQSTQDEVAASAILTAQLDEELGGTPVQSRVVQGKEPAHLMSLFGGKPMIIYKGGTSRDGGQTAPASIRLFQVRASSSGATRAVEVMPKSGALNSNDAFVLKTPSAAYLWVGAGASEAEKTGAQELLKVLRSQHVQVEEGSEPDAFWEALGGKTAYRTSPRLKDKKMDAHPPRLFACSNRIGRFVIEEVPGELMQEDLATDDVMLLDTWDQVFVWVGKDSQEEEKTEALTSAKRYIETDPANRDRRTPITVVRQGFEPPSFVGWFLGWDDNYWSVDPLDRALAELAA

Molecular target: T1, p55 (MAGUK protein) (mouse (endogenous in inner ear)) (UniProt P70290)
T1 sequence: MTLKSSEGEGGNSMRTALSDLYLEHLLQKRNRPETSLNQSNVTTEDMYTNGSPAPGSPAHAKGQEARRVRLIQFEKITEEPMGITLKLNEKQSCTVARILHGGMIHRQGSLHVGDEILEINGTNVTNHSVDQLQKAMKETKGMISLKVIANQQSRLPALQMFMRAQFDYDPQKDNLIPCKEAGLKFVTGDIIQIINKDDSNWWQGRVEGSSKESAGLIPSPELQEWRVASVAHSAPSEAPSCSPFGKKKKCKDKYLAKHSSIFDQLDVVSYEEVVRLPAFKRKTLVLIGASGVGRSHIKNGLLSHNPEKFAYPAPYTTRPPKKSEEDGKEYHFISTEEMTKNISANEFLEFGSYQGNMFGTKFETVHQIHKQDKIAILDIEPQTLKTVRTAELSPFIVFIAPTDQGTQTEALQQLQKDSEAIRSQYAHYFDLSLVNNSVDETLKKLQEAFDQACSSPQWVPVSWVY
Experiment: co-IP; immunoprecipitation from mouse inner ear lysate with anti-p55 antibody linked to agarose beads, normal goat IgG as negative control; western blot with anti-gelsolin antibody

binding: binds
Substance: gelsolin (from UniProt P13020)

These are yes or no findings as the source states them, for the method shown. Binding seen in cells or lysates may run through a third protein. A result given as binding can be weak or reduced; the word gives no strength.
